Laboratory results from the supplement of paper PMC10849652.
The list shows a part of the results. Residues, ends and D or L forms follow the SMILES beside them. *: point of attachment. Cbz = O=C(OCc1ccccc1)*

Sequences of proteins named here, by UniProt entry; tags and fusion partners are left off. A change or cut given only in a name is not applied to a line headed by its entry.
UniProt Q9UIL1: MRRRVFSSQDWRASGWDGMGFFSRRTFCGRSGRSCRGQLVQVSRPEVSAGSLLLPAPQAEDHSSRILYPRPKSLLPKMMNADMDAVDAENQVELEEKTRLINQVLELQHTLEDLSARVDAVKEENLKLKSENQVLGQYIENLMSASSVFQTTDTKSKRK
UniProt Q9H4B6: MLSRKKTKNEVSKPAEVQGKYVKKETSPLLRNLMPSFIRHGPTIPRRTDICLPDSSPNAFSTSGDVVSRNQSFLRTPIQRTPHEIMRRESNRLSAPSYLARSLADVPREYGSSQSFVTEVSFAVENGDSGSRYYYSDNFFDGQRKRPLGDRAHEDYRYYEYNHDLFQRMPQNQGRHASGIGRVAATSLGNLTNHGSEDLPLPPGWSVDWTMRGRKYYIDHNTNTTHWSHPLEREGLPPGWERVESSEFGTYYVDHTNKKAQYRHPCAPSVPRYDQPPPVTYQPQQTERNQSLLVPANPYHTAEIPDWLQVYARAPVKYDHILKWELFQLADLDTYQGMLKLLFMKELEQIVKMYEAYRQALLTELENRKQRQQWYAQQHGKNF
UniProt Q86WG5: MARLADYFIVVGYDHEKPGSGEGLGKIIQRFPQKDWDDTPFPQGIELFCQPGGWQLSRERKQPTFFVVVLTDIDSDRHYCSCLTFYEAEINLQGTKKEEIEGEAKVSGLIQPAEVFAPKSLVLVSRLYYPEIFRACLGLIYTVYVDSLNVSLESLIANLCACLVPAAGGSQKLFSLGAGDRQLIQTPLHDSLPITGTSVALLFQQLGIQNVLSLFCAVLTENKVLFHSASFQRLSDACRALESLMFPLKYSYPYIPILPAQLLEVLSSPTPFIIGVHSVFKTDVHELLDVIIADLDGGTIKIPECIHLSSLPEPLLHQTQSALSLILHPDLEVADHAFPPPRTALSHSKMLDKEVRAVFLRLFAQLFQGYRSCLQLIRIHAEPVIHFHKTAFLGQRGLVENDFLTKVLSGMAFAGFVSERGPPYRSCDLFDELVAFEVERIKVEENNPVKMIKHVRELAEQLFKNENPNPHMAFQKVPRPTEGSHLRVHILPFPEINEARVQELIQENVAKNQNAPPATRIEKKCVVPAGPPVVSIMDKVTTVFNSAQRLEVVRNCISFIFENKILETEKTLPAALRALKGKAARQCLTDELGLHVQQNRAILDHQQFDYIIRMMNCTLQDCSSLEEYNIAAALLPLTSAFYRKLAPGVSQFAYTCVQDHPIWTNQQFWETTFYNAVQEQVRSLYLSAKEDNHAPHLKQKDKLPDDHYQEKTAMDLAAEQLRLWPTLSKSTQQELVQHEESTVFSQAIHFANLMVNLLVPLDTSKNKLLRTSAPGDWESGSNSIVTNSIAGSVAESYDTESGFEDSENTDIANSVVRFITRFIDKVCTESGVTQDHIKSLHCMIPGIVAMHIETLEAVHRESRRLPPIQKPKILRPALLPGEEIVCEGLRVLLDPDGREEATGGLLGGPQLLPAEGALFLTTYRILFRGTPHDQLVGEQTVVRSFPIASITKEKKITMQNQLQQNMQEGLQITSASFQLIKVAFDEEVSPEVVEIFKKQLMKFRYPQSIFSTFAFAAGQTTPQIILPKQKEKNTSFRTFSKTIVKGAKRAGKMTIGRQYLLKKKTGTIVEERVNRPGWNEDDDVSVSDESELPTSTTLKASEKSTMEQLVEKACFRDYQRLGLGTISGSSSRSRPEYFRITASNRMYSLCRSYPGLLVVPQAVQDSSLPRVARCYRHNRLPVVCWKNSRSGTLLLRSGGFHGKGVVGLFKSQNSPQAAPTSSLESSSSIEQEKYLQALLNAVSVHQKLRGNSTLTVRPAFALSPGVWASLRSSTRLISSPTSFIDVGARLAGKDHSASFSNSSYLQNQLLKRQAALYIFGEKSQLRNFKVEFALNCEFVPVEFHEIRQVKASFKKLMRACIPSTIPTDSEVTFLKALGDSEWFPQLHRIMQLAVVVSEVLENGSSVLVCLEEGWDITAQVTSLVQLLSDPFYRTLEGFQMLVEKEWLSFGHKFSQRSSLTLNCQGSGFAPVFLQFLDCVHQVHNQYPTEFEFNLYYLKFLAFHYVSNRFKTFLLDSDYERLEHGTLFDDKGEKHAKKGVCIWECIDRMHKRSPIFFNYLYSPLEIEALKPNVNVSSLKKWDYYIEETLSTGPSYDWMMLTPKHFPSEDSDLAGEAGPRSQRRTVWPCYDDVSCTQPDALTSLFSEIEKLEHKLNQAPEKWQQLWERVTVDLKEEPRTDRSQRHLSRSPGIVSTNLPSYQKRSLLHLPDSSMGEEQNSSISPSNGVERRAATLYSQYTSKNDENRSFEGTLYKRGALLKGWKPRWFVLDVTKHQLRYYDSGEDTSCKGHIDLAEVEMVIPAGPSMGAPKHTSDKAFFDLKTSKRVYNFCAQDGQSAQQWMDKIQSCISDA
UniProt Q92503: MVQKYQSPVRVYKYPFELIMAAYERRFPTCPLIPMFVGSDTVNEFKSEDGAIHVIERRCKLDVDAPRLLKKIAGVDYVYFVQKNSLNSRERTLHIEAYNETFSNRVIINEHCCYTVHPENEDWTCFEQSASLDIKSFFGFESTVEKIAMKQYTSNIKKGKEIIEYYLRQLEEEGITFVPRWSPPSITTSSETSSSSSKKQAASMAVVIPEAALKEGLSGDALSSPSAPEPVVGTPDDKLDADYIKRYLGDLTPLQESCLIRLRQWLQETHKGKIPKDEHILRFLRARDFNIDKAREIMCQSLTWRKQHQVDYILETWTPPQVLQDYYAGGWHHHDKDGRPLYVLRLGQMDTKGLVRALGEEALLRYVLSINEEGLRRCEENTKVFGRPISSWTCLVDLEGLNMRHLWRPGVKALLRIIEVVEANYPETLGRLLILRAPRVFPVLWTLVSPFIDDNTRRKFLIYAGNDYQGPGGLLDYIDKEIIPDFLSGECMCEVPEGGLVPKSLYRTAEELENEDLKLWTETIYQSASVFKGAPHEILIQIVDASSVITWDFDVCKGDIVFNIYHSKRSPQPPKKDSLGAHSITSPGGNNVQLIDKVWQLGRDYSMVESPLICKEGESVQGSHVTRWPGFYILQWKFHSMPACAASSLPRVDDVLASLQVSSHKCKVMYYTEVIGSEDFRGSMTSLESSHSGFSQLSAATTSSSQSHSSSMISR
UniProt P28702: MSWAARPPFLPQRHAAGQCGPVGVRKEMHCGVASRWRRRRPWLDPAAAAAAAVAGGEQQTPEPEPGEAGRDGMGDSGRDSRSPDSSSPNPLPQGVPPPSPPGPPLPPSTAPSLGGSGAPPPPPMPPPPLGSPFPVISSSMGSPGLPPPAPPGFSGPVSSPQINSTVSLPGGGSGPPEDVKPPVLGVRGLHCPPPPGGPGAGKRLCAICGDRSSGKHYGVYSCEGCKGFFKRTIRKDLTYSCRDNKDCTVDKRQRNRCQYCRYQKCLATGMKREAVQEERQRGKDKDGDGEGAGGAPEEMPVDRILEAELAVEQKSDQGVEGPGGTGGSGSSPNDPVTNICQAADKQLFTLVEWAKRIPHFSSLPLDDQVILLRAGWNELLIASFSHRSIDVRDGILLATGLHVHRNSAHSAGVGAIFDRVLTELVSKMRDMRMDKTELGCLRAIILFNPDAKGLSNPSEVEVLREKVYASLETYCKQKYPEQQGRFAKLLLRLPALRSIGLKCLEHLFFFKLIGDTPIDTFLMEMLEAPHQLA
UniProt A6ZKI3: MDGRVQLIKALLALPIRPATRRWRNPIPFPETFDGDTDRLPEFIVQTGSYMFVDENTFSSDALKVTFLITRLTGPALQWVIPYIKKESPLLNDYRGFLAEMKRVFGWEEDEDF
UniProt Q96FQ6: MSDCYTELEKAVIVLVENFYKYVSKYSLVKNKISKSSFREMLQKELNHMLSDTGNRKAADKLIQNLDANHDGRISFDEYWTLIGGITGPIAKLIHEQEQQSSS
UniProt Q6UWP8: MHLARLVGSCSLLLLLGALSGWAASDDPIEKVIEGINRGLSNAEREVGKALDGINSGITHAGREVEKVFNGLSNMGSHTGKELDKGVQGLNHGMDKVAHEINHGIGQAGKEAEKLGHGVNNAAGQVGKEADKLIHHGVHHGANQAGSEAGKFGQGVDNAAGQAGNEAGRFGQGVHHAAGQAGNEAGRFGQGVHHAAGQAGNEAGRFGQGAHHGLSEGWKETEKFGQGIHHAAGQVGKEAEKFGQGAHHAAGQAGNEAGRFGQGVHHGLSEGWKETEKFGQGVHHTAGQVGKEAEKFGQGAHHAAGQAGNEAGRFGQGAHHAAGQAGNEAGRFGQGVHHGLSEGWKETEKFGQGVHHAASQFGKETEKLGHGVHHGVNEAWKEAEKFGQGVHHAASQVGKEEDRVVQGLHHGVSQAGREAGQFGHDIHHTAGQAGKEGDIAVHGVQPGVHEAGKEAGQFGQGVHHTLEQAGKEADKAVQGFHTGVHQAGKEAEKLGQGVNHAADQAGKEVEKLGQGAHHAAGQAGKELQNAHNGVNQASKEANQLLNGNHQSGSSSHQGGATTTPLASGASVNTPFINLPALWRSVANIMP
UniProt Q96BY9: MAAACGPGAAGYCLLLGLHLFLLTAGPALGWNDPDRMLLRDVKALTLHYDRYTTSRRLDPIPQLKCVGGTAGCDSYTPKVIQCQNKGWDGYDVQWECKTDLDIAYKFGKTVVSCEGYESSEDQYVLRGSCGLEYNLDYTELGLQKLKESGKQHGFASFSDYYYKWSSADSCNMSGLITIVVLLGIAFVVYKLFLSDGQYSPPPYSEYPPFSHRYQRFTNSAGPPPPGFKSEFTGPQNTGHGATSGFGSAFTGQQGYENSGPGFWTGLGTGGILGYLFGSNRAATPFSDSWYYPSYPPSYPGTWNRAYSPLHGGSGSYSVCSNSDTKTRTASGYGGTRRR
UniProt Q9NPB0: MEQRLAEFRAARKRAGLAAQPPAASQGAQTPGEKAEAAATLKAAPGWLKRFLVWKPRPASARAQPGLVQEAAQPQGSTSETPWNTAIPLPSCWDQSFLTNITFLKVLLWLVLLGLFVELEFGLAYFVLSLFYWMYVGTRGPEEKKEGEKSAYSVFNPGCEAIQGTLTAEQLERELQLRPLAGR
UniProt P23297: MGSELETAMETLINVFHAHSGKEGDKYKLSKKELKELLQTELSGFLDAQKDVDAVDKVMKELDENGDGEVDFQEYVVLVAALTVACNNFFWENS
UniProt P60903, whole entry, looked up: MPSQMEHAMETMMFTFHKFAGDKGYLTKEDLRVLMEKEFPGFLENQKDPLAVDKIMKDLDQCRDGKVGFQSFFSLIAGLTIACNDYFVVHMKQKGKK
UniProt O14828: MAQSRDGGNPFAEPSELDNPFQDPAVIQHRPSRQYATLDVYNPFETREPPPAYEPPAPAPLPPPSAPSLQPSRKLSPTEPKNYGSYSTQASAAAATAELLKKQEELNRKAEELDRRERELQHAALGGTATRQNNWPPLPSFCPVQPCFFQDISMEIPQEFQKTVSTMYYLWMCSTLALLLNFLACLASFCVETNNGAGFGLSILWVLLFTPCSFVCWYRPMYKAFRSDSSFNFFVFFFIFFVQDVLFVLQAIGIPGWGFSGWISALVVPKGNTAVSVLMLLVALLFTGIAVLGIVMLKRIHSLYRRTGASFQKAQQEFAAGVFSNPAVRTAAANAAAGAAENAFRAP
UniProt Q9H0E3: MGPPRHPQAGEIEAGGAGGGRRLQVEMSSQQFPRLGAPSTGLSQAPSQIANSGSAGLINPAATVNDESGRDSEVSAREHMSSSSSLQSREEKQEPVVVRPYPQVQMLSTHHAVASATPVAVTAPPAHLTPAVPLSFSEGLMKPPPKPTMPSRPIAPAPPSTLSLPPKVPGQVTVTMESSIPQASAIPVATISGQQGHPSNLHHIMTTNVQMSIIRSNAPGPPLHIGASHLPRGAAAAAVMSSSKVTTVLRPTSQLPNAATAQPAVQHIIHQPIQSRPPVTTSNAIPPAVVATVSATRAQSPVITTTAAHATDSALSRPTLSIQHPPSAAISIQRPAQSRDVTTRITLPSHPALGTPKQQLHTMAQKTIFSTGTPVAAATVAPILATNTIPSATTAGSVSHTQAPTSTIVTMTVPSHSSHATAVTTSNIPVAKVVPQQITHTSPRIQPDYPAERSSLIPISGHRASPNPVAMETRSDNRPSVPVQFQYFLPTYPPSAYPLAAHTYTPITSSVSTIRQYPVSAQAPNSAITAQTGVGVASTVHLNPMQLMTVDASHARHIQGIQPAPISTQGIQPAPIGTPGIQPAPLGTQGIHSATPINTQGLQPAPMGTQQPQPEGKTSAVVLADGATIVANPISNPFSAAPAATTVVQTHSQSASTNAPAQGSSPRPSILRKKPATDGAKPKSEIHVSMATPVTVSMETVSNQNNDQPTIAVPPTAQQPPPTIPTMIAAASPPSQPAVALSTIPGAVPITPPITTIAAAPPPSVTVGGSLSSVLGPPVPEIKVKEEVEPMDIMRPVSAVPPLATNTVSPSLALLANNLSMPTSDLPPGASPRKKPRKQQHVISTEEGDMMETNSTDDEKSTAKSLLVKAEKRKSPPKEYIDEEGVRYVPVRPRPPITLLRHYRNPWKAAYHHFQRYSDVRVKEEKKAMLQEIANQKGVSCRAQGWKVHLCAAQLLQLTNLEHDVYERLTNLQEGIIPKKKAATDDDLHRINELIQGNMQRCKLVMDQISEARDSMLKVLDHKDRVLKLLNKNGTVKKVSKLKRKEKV

Legend:
Test in all cases: log2 fold change, soluble protein after heating vs DMSO (PISA); higher = thermal stabilisation; K562 cells, 10 uM, 30 min; active = over 0.2 and 3.5 SD of the protein, either way, in both replicates (recomputed)
[1] = compound: C1=CC=C(C=C1)C2=NC(=C(N2)C3=CC=NC=C3)C4=CC(=C(C=C4)Cl)O
Outline: (§1)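 For each measurement, 10 μM compound was applied for 30 min to K562 cells at 2×10^6 cells/mL. Aliquots were heated for 3 min across 48°C-58°C, pooled, and extracted in PBS with 0.5% NP-40 at 4°C; the supernatant after 21,000xg for 90 min was soluble protein. This was quantified by TMTpro 16plex LC-MS/MS with channel sums equalised, and thermal stability was reported relative to control samples from duplicates, on a log2 fold-change scale.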

ralimetinib = compound: CC(C)(C)Cn1c(N)nc2ccc(-c3[nH]c(C(C)(C)C)nc3-c3ccc(F)cc3)nc21 [ralimetinib]
Outline: as §1

[2] = compound: CC(C)C[C@@H](C=O)NC(=O)[C@H](CC(C)C)NC(=O)[C@H](CC(C)C)NC(=O)OCc1ccccc1
Outline: as §1

erlotinib = compound: C#Cc1cccc(Nc2ncnc3cc(OCCOC)c(OCCOC)cc23)c1 [erlotinib]
Outline: as §1

[3] = compound: C1=CC(=CC=C1C2=NC3=C(N2)C=C(C=C3)C(=O)N)OC4=CC=C(C=C4)Cl
Outline: as §1

[4] = compound: CC(C)C1=C2N=C(C=C(N2N=C1)NCC3=CC=CC=C3)NCCCCCCN
Outline: as §1

[5] = compound: CC1=C(C(CC(=O)N1)C2=CC=C(C=C2)C(F)(F)F)C(=O)NC3=C(C=C4C(=C3)C=NN4)F
Outline: as §1

[6] = compound: C1CCN(C1)C(=O)NC2=CC=CC(=C2)NC3=NC=C(C(=N3)NCCC4=CN=CN4)Br
Outline: as §1

[7] = compound: C1CN(CCC1(CC2=CC=C(C=C2)Cl)N)C3=NC=NC4=C3C=CN4
Outline: as §1

[8] = compound: CC1=C(C2=C(C=C1)C(=O)C3=CC=CC=C3N2CCCN)C
Outline: as §1

[9] = compound: C1=CC(=C(C=C1Cl)C2=NC3=NC=CN=C3C(=N2)NC4=CC=NC=C4)F
Outline: as §1

[10] = compound: CC(C)(O)CC(=O)NCCn1ccc2ncnc(Nc3ccc(Oc4cccc(C(F)(F)F)c4)c(Cl)c3)c21
Outline: as §1

[11] = compound: C1=CC2=NC=CN=C2C=C1/C=C/3\C(=O)NC(=O)S3
Outline: as §1

ibrutinib = compound: C=CC(=O)N1CCC[C@@H](n2nc(-c3ccc(Oc4ccccc4)cc3)c3c(N)ncnc32)C1 [ibrutinib]
Outline: as §1

IRAK-1-4 Inhibitor I = compound: C1COCCN1CCN2C3=CC=CC=C3N=C2NC(=O)C4=CC(=CC=C4)[N+](=O)[O-] [IRAK-1-4 Inhibitor I]
Outline: as §1

pinometostat = compound: CC(C)N(C[C@H]1O[C@@H](n2cnc3c(N)ncnc32)[C@H](O)[C@@H]1O)[C@H]1C[C@@H](CCc2nc3cc(C(C)(C)C)ccc3[nH]2)C1 [pinometostat]
Outline: as §1

[12] = compound: C/C(=N\NC(=O)C1=CC(=CC=C1)S(=O)(=O)N2CCOCC2)/C3=C(C=CC(=C3)Cl)O
Outline: as §1

[13] = compound: C1=CC2=C(C=CC(=C2)/C=C\3/C(=O)NC(=NCC4=CC=CS4)S3)N=C1
Outline: as §1

[14] = compound: C1=CC=C2C(=C1)C3=NNC4=CC=CC(=C43)C2=O
Outline: as §1

[15] = compound: CC(=O)c1cnc2ccc(-c3cc(Cl)c(O)c(Cl)c3)nc2c1N[C@H]1CC[C@H](CN(C)C)CC1
Outline: as §1

Measured: log2 fold change

SCOC (UniProt Q9UIL1)
inactive: [1] 0.067 | ralimetinib 0.037 | [2] 0.056

RXYLT1 (UniProt Q9Y2B1)
inactive: erlotinib -0.013 | [3] -0.05 | [4] 0.215 | [5] -0.154

SAV1 (UniProt Q9H4B6)
inactive: [6] -0.02 | [7] -0.066 | [8] -0.022

SBF2 (UniProt Q86WG5)
inactive: [9] 0.17 | [1] 0.329 | ralimetinib 0.179 | [10] 0.029 | [2] -0.006

SEC14L1 isoform 2 (UniProt Q92503)
inactive: erlotinib -0.053 | [9] 0.012 | [3] 0.026 | [6] 0.087 | [7] 0.025 | [10] 0.04 | [4] -0.098 | [8] 0.077

RXRB isoform 3 (UniProt P28702)
inactive: [9] 0.033 | [11] 0.117 | ibrutinib 0.216 | [10] -0.185

SCLT1 (UniProt Q96NL6)
inactive: [11] -0.002 | [6] -0.088 | [7] 0.051 | IRAK-1-4 Inhibitor I -0.046 | ibrutinib -0.049 | pinometostat 0.005 | [8] 0.129

RTL8C (UniProt A6ZKI3)
inactive: [9] -0.023 | [1] 0.162 | IRAK-1-4 Inhibitor I 0.031 | ralimetinib 0.137 | [10] -0.19 | [2] 0.198 | pinometostat 0.064

S100A16 (UniProt Q96FQ6)
inactive: erlotinib -0.018 | [9] 0.222 | [3] -0.116 | [11] -0.022 | [6] 0.098 | [7] -0.3 | IRAK-1-4 Inhibitor I 0.108 | ibrutinib 0.338 | [10] -0.095 | [4] -0.279 | pinometostat -0.199 | [5] -0.594 | [8] 0.752

SBSN (UniProt Q6UWP8)
inactive: [12] 0.009 | [13] 0.511 | [14] -0.873 | [15] -0.579 | [5] -0.377

SCN4A (UniProt P35499)
inactive: [12] -0.196 | [13] 0.28 | [14] -0.076 | [15] -0.129

SARAF (UniProt Q96BY9)
inactive: [12] -0.059 | [9] -0.022 | [13] -0.158 | [11] 0.225 | [14] 0.054 | [6] 0.029 | [7] 0.022 | ibrutinib -0.071 | [15] 0.08 | [10] 0 | [8] -0.275

SAYSD1 (UniProt Q9NPB0)
inactive: erlotinib -0.004 | [9] -0.003 | [3] -0.003 | [11] -0.098 | ibrutinib -0.004 | [10] -0.232 | [4] -0.208

S100A1 (UniProt P23297)
inactive: erlotinib -0.328 | [9] 0.038 | [3] 0.135 | [11] 0.067 | [1] 0.155 | IRAK-1-4 Inhibitor I 0.026 | ibrutinib 0.003 | ralimetinib -0.054 | [10] -0.137 | [4] -0.465 | [2] 0.108 | pinometostat -0.083 | [5] -0.002

SAMD4A (UniProt Q9UPU9)
inactive: erlotinib 0.759 | [9] -0.079 | [3] -0.019 | [6] 0.535 | [7] -0.438 | IRAK-1-4 Inhibitor I -0.022 | [10] 0.067 | [4] 0.16 | pinometostat 0.002 | [8] 0.411

SDAD1 (UniProt Q9NVU7)
inactive: [12] 0.045 | [9] -0.091 | [13] 0.092 | [11] 0.132 | [1] 0.065 | [14] -0.139 | IRAK-1-4 Inhibitor I -0.089 | ibrutinib -0.08 | [15] -0.025 | ralimetinib -0.011 | [10] -0.021 | [2] 0.047 | pinometostat 0.24 | [5] -0.417

S100A10 (UniProt P60903)
inactive: [12] 0.122 | [13] 0.194 | [11] 0.052 | [14] -0.096 | [6] -0.042 | [7] -0.013 | ibrutinib 0.605 | [15] -0.345 | [8] 0.522

SAFB2 (UniProt K7EQU4)
inactive: [9] -0.172 | [11] -0.277 | IRAK-1-4 Inhibitor I -0.129 | ibrutinib 0.131 | [10] -0.042 | pinometostat -0.051

SCAMP3 isoform 2 (UniProt O14828)
inactive: [9] 0.126 | [11] 0.002 | [1] -0.128 | IRAK-1-4 Inhibitor I -0.597 | ibrutinib 0.213 | ralimetinib 0.039 | [10] -0.11 | [2] 0.064 | pinometostat -0.354 | [5] -0.049

SAP130 isoform 3 (UniProt Q9H0E3)
inactive: [12] 0.042 | [13] 0.109 | [1] 0.186 | [14] -0.414 | IRAK-1-4 Inhibitor I 0.009 | [15] 0.064 | ralimetinib 0.025 | [2] 0.122 | pinometostat 0.091

SDF2 (UniProt Q99470)
inactive: erlotinib 0.046 | [9] -0.233 | [3] -0.096 | [11] -0.046 | [6] 0.043 | [7] 0.173 | IRAK-1-4 Inhibitor I -0.02 | ibrutinib 0.043 | [10] 0.057 | [4] -0.001 | pinometostat -0.229 | [8] 0.03

SAE1 (UniProt M0R286)
inactive: erlotinib 0.053 | [9] -0.146 | [3] -0.014 | [11] -0.007 | [1] -0.314 | IRAK-1-4 Inhibitor I -0.029 | ibrutinib -0.105 | ralimetinib -0.207 | [10] 0.115 | [4] 0.22 | [2] 0.374 | pinometostat 0.015

Six successive entries from above, quoted:
SAMD4A (UniProt Q9UPU9)
inactive: erlotinib 0.759 | [9] -0.079 | [3] -0.019 | [6] 0.535 | [7] -0.438 | IRAK-1-4 Inhibitor I -0.022 | [10] 0.067 | [4] 0.16 | pinometostat 0.002 | [8] 0.411

SDAD1 (UniProt Q9NVU7)
inactive: [12] 0.045 | [9] -0.091 | [13] 0.092 | [11] 0.132 | [1] 0.065 | [14] -0.139 | IRAK-1-4 Inhibitor I -0.089 | ibrutinib -0.08 | [15] -0.025 | ralimetinib -0.011 | [10] -0.021 | [2] 0.047 | pinometostat 0.24 | [5] -0.417

S100A10 (UniProt P60903)
inactive: [12] 0.122 | [13] 0.194 | [11] 0.052 | [14] -0.096 | [6] -0.042 | [7] -0.013 | ibrutinib 0.605 | [15] -0.345 | [8] 0.522

SAFB2 (UniProt K7EQU4)
inactive: [9] -0.172 | [11] -0.277 | IRAK-1-4 Inhibitor I -0.129 | ibrutinib 0.131 | [10] -0.042 | pinometostat -0.051

SCAMP3 isoform 2 (UniProt O14828)
inactive: [9] 0.126 | [11] 0.002 | [1] -0.128 | IRAK-1-4 Inhibitor I -0.597 | ibrutinib 0.213 | ralimetinib 0.039 | [10] -0.11 | [2] 0.064 | pinometostat -0.354 | [5] -0.049

SAP130 isoform 3 (UniProt Q9H0E3)
inactive: [12] 0.042 | [13] 0.109 | [1] 0.186 | [14] -0.414 | IRAK-1-4 Inhibitor I 0.009 | [15] 0.064 | ralimetinib 0.025 | [2] 0.122 | pinometostat 0.091
